These are yes or no findings as the source states them, for the method shown. For some assays here: In cells and extracts the contact can be indirect. Some entries that bind do so weakly or less than the wild type. Tags and fused reporters may be left off the sequences shown. Values belong to the binder of their own block, whether it stands above or below them.
Legend:
[1] = target: SOD1-CFP (human SOD1 fused to CFP, expressed in HeLa cells) (human) (UniProt P00441); assay: Ni-agarose pull-down from co-transfected HeLa cells
[2] = target: recombinant human superoxide dismutase [Cu-Zn] (SOD1), wild type (human) (UniProt P00441); assay: Western dot blot on immobilized recombinant SOD1
[3] = target: endogenous SOD1 of NSC-34 cells (mouse) (UniProt P08228); assay: co-immunoprecipitation with anti-SOD1 (IP SOD1), Western blot anti-His (WB HIS); non-transfected NSC-34 cells with nanobody added to the medium
[4] = target: endogenous SOD1 of NSC-34 cells (mouse) (UniProt P08228); assay: immunoprecipitation from lysates of co-transfected NSC-34 cells

Amino acid sequences for entries named in this document (tags omitted). Residues count along the entry.
UniProt P00441, residues 2-154: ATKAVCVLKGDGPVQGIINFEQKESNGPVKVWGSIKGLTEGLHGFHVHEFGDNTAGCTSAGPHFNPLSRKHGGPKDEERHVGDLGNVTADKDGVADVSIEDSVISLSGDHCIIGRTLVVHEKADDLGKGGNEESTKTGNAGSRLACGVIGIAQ
UniProt P08228, residues 2-154: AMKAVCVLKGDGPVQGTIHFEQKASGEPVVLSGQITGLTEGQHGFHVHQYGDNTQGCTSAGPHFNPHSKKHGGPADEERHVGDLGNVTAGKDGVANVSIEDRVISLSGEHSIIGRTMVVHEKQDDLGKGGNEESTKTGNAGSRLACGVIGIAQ

B2: Nb1, His6-tagged, expressed in E. coli (pET30a) (VHH)
VHH: QVQLQESGGGLVQPGGSLRLSCRASETLFSLYAMGWYRQAPGKQPELIATISGGGEGTGNYADPVKGRFTISRNNADNMVFLQMNNLKPEDTAVYYCNVYGTNLAPWGQGTQVTVSS
notes: Alpaca-derived nanobody; also called SOD1 nanobody from alpaca library; not shown: His6 tag and the pET30a vector residues around it
binding [2]: binds

B3: Nb1, HA-Myc-His6 tagged, expressed in HeLa cells (VHH, not shown: small tags and cut ends)
VHH: QVQLQESGGGLVQPGGSLRLSCRASETLFSLYAMGWYRQAPGKQPELIATISGGGEGTGNYADPVKGRFTISRNNADNMVFLQMNNLKPEDTAVYYCNVYGTNLAPWGQGTQVTVSS
binding [1]: binds

B5: HA-tagged anti-SOD1 nanobody expressed in NSC-34 cells (Nb2) (VHH, not shown: small tags and cut ends)
VHH: QVQLQESGGGSVQAGGSLRLACVASGGDTRPYITYWMGWYRQAPGKEREGVATIYTGGSGTYYSDSVEGRFTISQDKAQRTVYLQMNDLKPEDTAMYYCAAGNGALPPGRRLSPQNMDTWGPGTQVTVSS
binding [4]: binds

More lines, now with the values ahead:

binding [1]: binds
B1: Nb3, HA-Myc-His6 tagged, expressed in HeLa cells (VHH, not shown: small tags and cut ends)
VHH: QVQLQESGGGLVQAGGSLRLSCAASGLPYRTVFMGWFRQGPGKEREGVAVINADGVSTYYADSVKGRFTISQDNAKNTVYLQMNSLKPEDTAIYHCAANHFFDYSRDPLATAEYNYWGQGTQVTVSS

binding [3]: binds
B4: SOD1 nanobody protein with His tag and mCaspase-3 recognition site (Nb2, produced by VIB Protein Service Facility) (VHH, not shown: small tags and cut ends)
VHH: QVQLQESGGGSVQAGGSLRLACVASGGDTRPYITYWMGWYRQAPGKEREGVATIYTGGSGTYYSDSVEGRFTISQDKAQRTVYLQMNDLKPEDTAMYYCAAGNGALPPGRRLSPQNMDTWGPGTQVTVSS

From patent publication US20160115245A1 (VIB VZW, published 2016)
